We go through three substances from PMC9988257.

By UniProt entry, the sequences of proteins in these tests, tags left out.
UniProt O35382: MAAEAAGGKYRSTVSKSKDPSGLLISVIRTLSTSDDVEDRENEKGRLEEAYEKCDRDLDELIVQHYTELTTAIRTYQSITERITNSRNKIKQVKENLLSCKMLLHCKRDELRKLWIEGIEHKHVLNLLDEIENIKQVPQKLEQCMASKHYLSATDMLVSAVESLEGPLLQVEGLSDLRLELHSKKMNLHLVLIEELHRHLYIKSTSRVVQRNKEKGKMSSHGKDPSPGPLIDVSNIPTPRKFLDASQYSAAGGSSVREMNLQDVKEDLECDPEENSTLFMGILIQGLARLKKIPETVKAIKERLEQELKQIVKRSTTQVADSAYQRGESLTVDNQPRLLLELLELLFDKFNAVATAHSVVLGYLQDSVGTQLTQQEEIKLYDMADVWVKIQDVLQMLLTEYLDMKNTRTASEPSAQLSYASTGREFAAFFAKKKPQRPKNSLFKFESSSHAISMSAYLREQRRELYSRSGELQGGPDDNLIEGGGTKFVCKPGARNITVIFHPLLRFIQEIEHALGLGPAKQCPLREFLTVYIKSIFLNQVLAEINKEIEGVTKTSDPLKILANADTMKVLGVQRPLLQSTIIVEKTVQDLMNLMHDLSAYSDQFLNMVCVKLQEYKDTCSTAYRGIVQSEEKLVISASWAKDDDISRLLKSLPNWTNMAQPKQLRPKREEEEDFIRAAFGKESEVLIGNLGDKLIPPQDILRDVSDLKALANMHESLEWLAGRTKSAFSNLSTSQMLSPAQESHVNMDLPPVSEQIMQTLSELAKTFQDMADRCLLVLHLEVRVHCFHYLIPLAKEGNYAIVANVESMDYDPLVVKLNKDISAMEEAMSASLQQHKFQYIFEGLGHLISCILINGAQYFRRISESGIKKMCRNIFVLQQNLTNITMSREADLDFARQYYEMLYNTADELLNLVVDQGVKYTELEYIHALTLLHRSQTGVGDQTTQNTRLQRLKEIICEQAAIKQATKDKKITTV
UniProt O35250: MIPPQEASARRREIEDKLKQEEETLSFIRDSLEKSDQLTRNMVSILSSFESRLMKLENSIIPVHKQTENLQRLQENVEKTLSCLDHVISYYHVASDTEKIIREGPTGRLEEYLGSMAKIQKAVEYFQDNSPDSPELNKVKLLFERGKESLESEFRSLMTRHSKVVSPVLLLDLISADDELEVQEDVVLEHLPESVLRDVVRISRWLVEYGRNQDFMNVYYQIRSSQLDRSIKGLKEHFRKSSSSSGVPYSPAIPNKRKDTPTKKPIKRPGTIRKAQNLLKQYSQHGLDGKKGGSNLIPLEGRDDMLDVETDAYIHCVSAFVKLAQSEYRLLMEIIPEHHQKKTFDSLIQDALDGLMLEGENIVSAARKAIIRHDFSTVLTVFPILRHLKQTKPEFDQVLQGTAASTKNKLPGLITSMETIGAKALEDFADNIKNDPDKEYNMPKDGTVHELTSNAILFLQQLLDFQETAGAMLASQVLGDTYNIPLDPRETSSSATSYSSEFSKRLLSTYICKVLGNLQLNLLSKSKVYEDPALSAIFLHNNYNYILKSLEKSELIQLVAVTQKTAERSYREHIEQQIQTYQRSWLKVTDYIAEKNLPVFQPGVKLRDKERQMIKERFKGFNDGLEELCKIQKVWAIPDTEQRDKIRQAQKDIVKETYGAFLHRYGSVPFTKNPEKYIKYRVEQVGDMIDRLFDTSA
UniProt Q3TPX4: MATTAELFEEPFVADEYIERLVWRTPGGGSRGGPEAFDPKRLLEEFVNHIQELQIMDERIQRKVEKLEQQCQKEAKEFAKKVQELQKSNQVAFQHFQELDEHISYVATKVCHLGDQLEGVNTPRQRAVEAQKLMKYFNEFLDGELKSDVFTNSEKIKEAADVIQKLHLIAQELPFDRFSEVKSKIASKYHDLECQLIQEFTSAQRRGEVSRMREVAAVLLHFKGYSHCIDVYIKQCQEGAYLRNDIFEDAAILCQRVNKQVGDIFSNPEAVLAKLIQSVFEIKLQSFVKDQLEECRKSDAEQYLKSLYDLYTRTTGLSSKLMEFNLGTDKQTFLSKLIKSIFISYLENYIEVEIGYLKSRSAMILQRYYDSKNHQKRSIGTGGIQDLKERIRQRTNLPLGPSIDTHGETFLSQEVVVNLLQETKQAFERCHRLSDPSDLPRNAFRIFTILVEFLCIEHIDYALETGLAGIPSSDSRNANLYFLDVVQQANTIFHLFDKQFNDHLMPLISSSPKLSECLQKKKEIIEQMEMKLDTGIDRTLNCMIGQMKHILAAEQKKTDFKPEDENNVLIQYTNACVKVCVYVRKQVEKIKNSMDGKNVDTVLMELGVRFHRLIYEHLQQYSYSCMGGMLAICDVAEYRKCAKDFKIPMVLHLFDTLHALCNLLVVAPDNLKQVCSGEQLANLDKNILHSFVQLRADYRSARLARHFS

The target of test [1] is T1, MEF-tagged exophilin-8, WT (expressed in MIN6 cells) (mouse) (UniProt Q8K3I4).
T1 sequence: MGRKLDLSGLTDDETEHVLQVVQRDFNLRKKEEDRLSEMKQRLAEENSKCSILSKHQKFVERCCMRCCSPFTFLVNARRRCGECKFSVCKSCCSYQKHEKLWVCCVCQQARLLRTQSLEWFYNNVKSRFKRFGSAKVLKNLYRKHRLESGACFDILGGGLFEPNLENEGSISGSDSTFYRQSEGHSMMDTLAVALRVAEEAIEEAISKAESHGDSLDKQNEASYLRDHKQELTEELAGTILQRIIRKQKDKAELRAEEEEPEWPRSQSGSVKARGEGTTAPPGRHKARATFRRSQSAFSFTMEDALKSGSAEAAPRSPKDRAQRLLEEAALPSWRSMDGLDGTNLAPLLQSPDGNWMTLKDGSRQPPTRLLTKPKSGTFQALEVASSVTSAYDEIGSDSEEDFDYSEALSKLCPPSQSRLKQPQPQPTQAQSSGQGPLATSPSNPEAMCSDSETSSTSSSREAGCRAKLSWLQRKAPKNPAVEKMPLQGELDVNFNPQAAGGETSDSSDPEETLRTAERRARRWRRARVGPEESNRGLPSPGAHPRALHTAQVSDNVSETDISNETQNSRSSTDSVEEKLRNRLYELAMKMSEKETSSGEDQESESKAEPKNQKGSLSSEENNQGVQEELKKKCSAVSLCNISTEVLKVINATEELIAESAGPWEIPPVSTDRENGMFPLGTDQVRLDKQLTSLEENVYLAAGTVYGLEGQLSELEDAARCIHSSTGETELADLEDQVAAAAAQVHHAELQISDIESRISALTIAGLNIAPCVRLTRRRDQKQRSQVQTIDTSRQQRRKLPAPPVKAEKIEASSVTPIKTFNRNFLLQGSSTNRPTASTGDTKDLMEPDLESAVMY
The test is described as follows: affinity purification with mass spectrometry; MIN6 cells infected with adenovirus; anti-FLAG immunoprecipitates, gel stained with Oriole, specific bands cut, trypsin digest, LC-MS/MS.

The target in test [2] is T2, MEF-tagged melanophilin (expressed in MIN6 cells) (mouse) (UniProt Q91V27).
T2 sequence: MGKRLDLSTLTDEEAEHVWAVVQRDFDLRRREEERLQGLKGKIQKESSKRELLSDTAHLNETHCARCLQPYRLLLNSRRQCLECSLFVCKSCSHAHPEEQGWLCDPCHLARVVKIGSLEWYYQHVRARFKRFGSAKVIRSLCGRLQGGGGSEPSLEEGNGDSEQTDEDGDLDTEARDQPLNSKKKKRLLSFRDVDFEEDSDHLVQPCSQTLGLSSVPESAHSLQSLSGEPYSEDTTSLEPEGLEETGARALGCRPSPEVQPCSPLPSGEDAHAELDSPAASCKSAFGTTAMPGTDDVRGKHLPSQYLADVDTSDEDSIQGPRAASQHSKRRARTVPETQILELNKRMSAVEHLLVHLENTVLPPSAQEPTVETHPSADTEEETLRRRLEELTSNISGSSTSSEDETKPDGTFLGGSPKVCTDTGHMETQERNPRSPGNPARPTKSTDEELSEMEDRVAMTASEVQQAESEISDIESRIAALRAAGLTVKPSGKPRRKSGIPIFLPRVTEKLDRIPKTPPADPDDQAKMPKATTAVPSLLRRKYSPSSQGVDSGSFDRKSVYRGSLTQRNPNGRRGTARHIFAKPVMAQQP
The description is as above.

No constants are given. Whether binding was seen depends on the method and setting. In cells and extracts the contact can be indirect. A yes stands for co-enrichment or nearness to the bait. Other partners may have been found. Sequences can lack the tags named with a protein.

With “SEC8 (endogenous, MIN6 cells) (from UniProt O35382 1-975)”, the binding entry in test [1] and in test [2] was “binds” throughout.

In the case of “EXO70 (endogenous, MIN6 cells) (from UniProt O35250 1-697)”, the binding entry in test [1] and in test [2] was “binds” throughout.

For the substance “SEC10 (endogenous, MIN6 cells) (from UniProt Q3TPX4 1-708)”, the binding result in test [1] and in test [2] was “binds” each time.
